{"source": "patent US6962713B2", "about": "“Spot-on formulations for combating parasites” (Merial, priority 1919, dated 2005)", "test": "Plasma kinetics of ivermectin after oral administration of Cardomec to dogs", "assay_type": "in vivo, dog", "settings": "Cardomec oral 6 μg.kg^−1, fasted dogs, individual dogs", "protocol": "Five male Beagle dogs received a dose of approximately 6 μg.kg^−1 of ivermectin, i.e., one 68 μg Cardomec® tablet per dog. The animals were fasted prior to administration and up to 6 hours after treatment to prevent a possible interaction with food.\nBlood samples were collected at intervals up to 28 days post-dosing. The determination of ivermectin in dog plasma was carried out by HPLC using fluorescence detection after derivatization. The limit of quantification was 100 pg.ml^−1.", "note": "Several values for one entry are separate records, joined by “and”; a condition that tells them apart may be missing. Equal values may be shown once. This continues a long series; more values of the same kind are listed elsewhere."}
{"substance": "ivermectin", "values": [{"measurement": "Plasma concentrations of ivermectin", "setting": "0 h", "result": "BLQ (Below the Limit of Quantification (100 pg.ml^−1))"}, {"measurement": "Plasma concentrations of ivermectin", "setting": "0.75 h", "result": "BLQ (Below the Limit of Quantification (100 pg.ml^−1)) (3×) and 197 pg.ml^−1 and 400 pg.ml^−1"}, {"measurement": "Plasma concentrations of ivermectin", "setting": "1.5 h", "result": "228 pg.ml^−1 and 594 pg.ml^−1 and BLQ (Below the Limit of Quantification (100 pg.ml^−1)) (2×) and 1856 pg.ml^−1"}, {"measurement": "Plasma concentrations of ivermectin", "setting": "3 h", "result": "2964 pg/mL and 629 pg/mL and 108 pg/mL and 1871 pg/mL and 422 pg/mL"}, {"measurement": "Plasma concentrations of ivermectin", "setting": "4 h", "result": "2554 pg/mL and 475 pg/mL and 143 pg/mL and 1955 pg/mL and 363 pg/mL"}, {"measurement": "Plasma concentrations of ivermectin", "setting": "6 h", "result": "2238 pg/mL and 462 pg/mL and 219 pg/mL and 1584 pg/mL and 277 pg/mL"}, {"measurement": "Plasma concentrations of ivermectin", "setting": "8 h", "result": "1499 pg/mL and 416 pg/mL and 327 pg/mL and 1379 pg/mL and 226 pg/mL"}, {"measurement": "Plasma concentrations of ivermectin", "setting": "10 h", "result": "1379 pg/mL and 758 pg/mL and 534 pg/mL and 1136 pg/mL and 183 pg/mL"}, {"measurement": "Plasma concentrations of ivermectin", "setting": "12 h", "result": "1374 pg/mL and 911 pg/mL and 557 pg/mL and 902 pg/mL and 170 pg/mL"}, {"measurement": "Plasma concentrations of ivermectin", "setting": "24 h", "result": "875 pg/mL and 626 pg/mL and 347 pg/mL and 650 pg/mL and 125 pg/mL"}, {"measurement": "Plasma concentrations of ivermectin", "setting": "32 h", "result": "612 pg.ml^−1 and 429 pg.ml^−1 and 214 pg.ml^−1 and 434 pg.ml^−1 and BLQ (Below the Limit of Quantification (100 pg.ml^−1))"}, {"measurement": "Plasma concentrations of ivermectin", "setting": "D 2", "result": "463 pg/mL and 362 pg/mL and 195 pg/mL and 320 pg/mL"}, {"measurement": "Plasma concentrations of ivermectin", "setting": "D 3", "result": "334 pg/mL and 201 pg/mL and 126 pg/mL and 202 pg/mL"}, {"measurement": "Plasma concentrations of ivermectin", "setting": "D 4", "result": "264 pg.ml^−1 and 133 pg.ml^−1 and BLQ (Below the Limit of Quantification (100 pg.ml^−1)) and 141 pg.ml^−1"}, {"measurement": "Plasma concentrations of ivermectin", "setting": "D 5", "result": "200 pg.ml^−1 and BLQ (Below the Limit of Quantification (100 pg.ml^−1)) (2×)"}, {"measurement": "Plasma concentrations of ivermectin", "setting": "D 7", "result": "140 pg.ml^−1 and BLQ (Below the Limit of Quantification (100 pg.ml^−1)) (2×)"}, {"measurement": "Plasma concentrations of ivermectin", "setting": "D 9", "result": "BLQ (Below the Limit of Quantification (100 pg.ml^−1))"}, {"measurement": "Plasma concentrations of ivermectin", "setting": "D 14", "result": "BLQ (Below the Limit of Quantification (100 pg.ml^−1))"}, {"measurement": "Plasma concentrations of ivermectin", "setting": "D 21", "result": "BLQ (Below the Limit of Quantification (100 pg.ml^−1))"}]}
